# Laboratory results as given in US20180207259A1 (BETH ISRAEL DEACONESS MEDICAL CENTER, published 2018).
# Target: T1, soluble CD4 (UniProt P01730 26-396)
# T1 construct: Called only 'soluble CD4'
# Test: surface plasmon resonance
binder,measurement,value
"92UG037.8-gp140-Fd (other, Homotrimer made in T. ni (High 5) insect cells; The leader of the insect-cell construct may differ; also called 92UG037.8 (clade A) gp140 trimer; clade A trimer) AENLWVTVYYGVPVWKDAETTLFCASDAKAYDTEVHNVWATHACVPTDPNPQEIYMENVTEEFNMWKNNMVEQMHTDIISLWDQSLKPCVQLTPLCVTLDCSYNITNNITNSITNSSVNMREEIKNCSFNMTTELRDKNRKVYSLFYKLDVVQINNGNNSSNLYRLINCNTSALTQACPKVTFEPIPIRYCAPAGYAILKCNDKEFNGTGLCKNVSTVQCTHGIRPVVSTQLLLNGSLAEGKVMIRSENITNNVKNIIVQLNETVTINCTRPNNNTRKSVRIGPGQTFYATGDIIGDIRQAHCNVSGSQWNRALHQVVGQLREYWNTTIIFKNSSGGDLEITTHSFNCGGEFFYCNTSGLFNSNWTHNDTASMKPNDTITLPCRIKQIINMWQRVGQAIYAPPIQGVIRCESNITGLILTRDGGGNINESQIFRPGGGDMRDNWRSELYKYKVVRIEPLGVAPTKAKRRVVEREKRAVVELGAVFIGFLGTAGSTMGAASITLTVQVRKLLSGIVQQQSNLLRAIEAQQHLLKLTVWGIKQLQARVLAVERYLRDQQLLGIWGCSGKLICTTNVPWNSSWSNKSEREIWENMTWLQWDKEISNYTHIIYELIEESQKQQEKNEQELLELDKWANLWNWFDISNWLWYIKEFSRIEGRGSGGYIPEAPRDGQAYVRKDGEWVLLSTFLGHHHHHH",Kd,1.9 nM
